This is an account of results in publication doi:10.1101/258731.

Sequences of proteins named here, by UniProt entry; tags and fusion partners are left off.
UniProt P15307: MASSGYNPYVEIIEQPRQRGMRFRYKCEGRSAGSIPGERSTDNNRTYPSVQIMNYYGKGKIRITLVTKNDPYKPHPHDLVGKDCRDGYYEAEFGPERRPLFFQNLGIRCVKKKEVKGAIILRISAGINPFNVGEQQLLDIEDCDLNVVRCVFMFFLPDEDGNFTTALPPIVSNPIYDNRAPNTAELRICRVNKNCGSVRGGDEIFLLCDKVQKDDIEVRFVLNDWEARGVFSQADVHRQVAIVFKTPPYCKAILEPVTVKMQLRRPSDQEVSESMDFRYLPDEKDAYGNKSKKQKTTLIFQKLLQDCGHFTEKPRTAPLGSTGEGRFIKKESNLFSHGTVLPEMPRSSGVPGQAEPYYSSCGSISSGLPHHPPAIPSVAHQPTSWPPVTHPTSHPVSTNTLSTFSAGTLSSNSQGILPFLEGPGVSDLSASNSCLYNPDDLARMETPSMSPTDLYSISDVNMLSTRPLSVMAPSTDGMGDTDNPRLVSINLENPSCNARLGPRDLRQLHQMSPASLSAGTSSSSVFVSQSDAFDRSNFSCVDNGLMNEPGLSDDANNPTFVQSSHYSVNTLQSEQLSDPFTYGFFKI
UniProt P53996: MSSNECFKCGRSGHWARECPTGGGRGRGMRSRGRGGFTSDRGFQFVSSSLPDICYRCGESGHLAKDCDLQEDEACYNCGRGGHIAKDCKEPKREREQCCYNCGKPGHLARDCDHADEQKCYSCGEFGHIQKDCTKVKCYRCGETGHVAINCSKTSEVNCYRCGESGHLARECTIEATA

No constants are given. Whether binding was seen depends on the method and setting. In cells and extracts the contact can be indirect. Some binding calls cover weakened binding; strength is not graded here.

This assay deals with c-Rel (mouse (endogenous in BMDMs)) (UniProt P15307). The assay can be described thus: co-IP.

As for “Cellular nucleic acid binding protein (Cnbp) (from UniProt P53996 1-178)”, the binding entry is “binds”.
